Paper doi:10.1101/2025.05.27.656397, “A new heme enzyme family forms hydrazine groups in diverse biosynthetic pathways” (bioRxiv, 2025)

Key:
[1] = target: T1, N-terminally His6-tagged KinI (ferredoxin) (S. murayamaensis); assay: SEC; anaerobic size exclusion chromatography of proteins expressed alone or co-expressed and purified; both purified
T1 sequence: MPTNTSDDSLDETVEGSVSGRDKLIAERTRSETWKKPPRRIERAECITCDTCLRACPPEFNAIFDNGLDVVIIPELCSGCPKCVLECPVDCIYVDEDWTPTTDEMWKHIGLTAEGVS

[2] = target: T1, N-terminally His6-tagged KinI (ferredoxin) (S. murayamaensis); assay: pull-down; proteins co-expressed in E. coli, His6 tag on one partner at the N- or C-terminus, expressed aerobically, purified anaerobically; partner found in the affinity-purified material

binding [1]: binds
binding [2]: binds
Substance: FzmP, co-expressed with KinI (enzyme)

These are yes or no findings as the source states them, for the method shown. Binding can be weak; no strength is given. Tags and fused reporters may be left off the sequences shown. For some assays here: Binding seen in cells or lysates may run through a third protein.
